# Assay results: the supplement of paper PMC10735217
# The other results are listed elsewhere or left out. Single values are uncertain here, since repeats match poorly.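 Human kidney-derived cells stably carry a construct in which eight TEAD-binding elements drive luciferase, measured by luminescence in a drug-repurposing library screen. A hit is any compound whose signal exceeds the plate mean by more than five robust Z scores.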
# Tested on: HEK293A TEAD-LUC reporter
# Experiment: TEAD-luciferase reporter activity (YAP activation), robust Z score vs plate; higher = stronger YAP/TEAD activation
# Details: 24 h
SMILES,TEAD-luciferase reporter activity (compound concentration: 200 nM),TEAD-luciferase reporter activity (compound concentration: 2 uM),TEAD-luciferase reporter activity (compound concentration: 10 uM)
CN1CCN(c2ccc(C(=O)Nc3n[nH]c4ccc(Cc5cc(F)cc(F)c5)cc34)c(NC3CCOCC3)c2)CC1 [Entrectinib],inactive: 1.02,inactive: -1.67,inactive: -2.11
CC(C)(C)c1csc(-c2cc3cc(OCc4ccccc4CC(=O)O)ccc3o2)n1,inactive: 0.977,inactive: 2.35,inactive: -0.245
COc1c(C)cnc(Cn2cc(C#CCCO)c3c(Cl)nc(N)nc32)c1C,inactive: -0.458,,inactive: -1.44
NS(=O)(=O)c1cc2c(cc1Cl)N=CNS2(=O)=O [Chlorothiazide],inactive: -2.23,inactive: -1.3,inactive: 1.76
COc1ccc(-n2nc(C(N)=O)c3c2C(=O)N(c2ccc(N4CCCCC4=O)cc2)CC3)cc1 [Apixaban],inactive: 0.342,inactive: -1.39,inactive: 0.214
COc1ccc(/C=C/c2ccc3c(=O)n(CCCN(C)C)ncc3c2)cc1,inactive: -0.169,inactive: 0.249,inactive: 1.93
NCCOC[C@H](N)C(=O)O,inactive: 1.66,inactive: -1.56,inactive: -1.06
CCOC(=O)c1cnc2c(cnn2CC)c1NN=C(C)C [Etazolate],inactive: 1.78,inactive: 0.502,inactive: -0.55
Cc1nc2c(C)cccn2c(=O)c1CCN1CCC(c2noc3cc(F)ccc23)CC1 [Ocaperidone],inactive: -0.598,inactive: -0.88,inactive: 2.66
CCCCOc1ccc(C(=O)OCCN(CC)CC)cc1,inactive: 1.43,inactive: 0.524,inactive: 1.75
CC[C@@H]1NC(=O)[C@H](CCCCN)NC(=O)[C@@H](Cc2c[nH]c3ccccc23)NC(=O)[C@H](Cc2ccc(O)cc2)NC(=O)[C@@H](NC(=O)[C@@H](Cc2ccccc2)NC(=O)CN2CCN(CCO)CC2)CSSC[C@@H](C(=O)N[C@H](C(N)=O)[C@@H](C)O)NC1=O,inactive: 0.195,inactive: 0.911,inactive: -0.248
Cc1c(-c2ccccc2)c(-c2ccccc2)nn1-c1ccccc1,inactive: -1.84,inactive: -0.486,inactive: -0.186
CSc1nc(-c2cccc(NC(=O)CN3CCOCC3)c2)c2c(N)c(C(=O)NC(C)(C)C)sc2n1,inactive: -0.41,inactive: -2.24,inactive: 1.37
Clc1cc(OCc2ccccc2)ccc1OCc1ccccc1,inactive: -1.33,inactive: 1.98,active: 5.31
O=C(O)Cc1ccc2oc3ccccc3c2c1,inactive: -1.85,inactive: 0.326,inactive: 0.455
CN(C/C=C(/C#Cc1ccc(-c2ccoc2)cc1)c1ccccc1)CC(=O)O,inactive: -0.182,inactive: 0.454,inactive: -0.19

# Reformatted as tab-separated lines: entries from further up.
SMILES	TEAD-luciferase reporter activity (compound concentration: 200 nM)	TEAD-luciferase reporter activity (compound concentration: 2 uM)	TEAD-luciferase reporter activity (compound concentration: 10 uM)
CC[C@@H]1NC(=O)[C@H](CCCCN)NC(=O)[C@@H](Cc2c[nH]c3ccccc23)NC(=O)[C@H](Cc2ccc(O)cc2)NC(=O)[C@@H](NC(=O)[C@@H](Cc2ccccc2)NC(=O)CN2CCN(CCO)CC2)CSSC[C@@H](C(=O)N[C@H](C(N)=O)[C@@H](C)O)NC1=O	inactive: 0.195	inactive: 0.911	inactive: -0.248
Cc1c(-c2ccccc2)c(-c2ccccc2)nn1-c1ccccc1	inactive: -1.84	inactive: -0.486	inactive: -0.186

# (list continues)

SMILES,TEAD-luciferase reporter activity (compound concentration: 200 nM),TEAD-luciferase reporter activity (compound concentration: 2 uM),TEAD-luciferase reporter activity (compound concentration: 10 uM)
CN(C(=O)CN(CCO)CC(=O)N(C)C(C)(C)Cc1ccccc1)C(C)(C)Cc1ccccc1,inactive: -0.487,inactive: 0.0433,inactive: 0.278
OC[C@H]1O[C@@H](n2c(Br)nc3cc(Cl)c(Cl)cc32)[C@H](O)[C@@H]1O,inactive: 0.948,inactive: 0.932,inactive: 1.38
O=C(Cc1ccc(OCc2ccccc2)cc1)Nc1ccc2cnn(CCN3CCCC3)c2c1,inactive: -1.65,inactive: -1.15,inactive: -0.821
CC1=C(/C=C/C(C)=C/C=C/C(C)=C/C=C/C=C(C)/C=C/C=C(C)/C=C/C2=C(C)C(=O)CCC2(C)C)C(C)(C)CCC1=O,inactive: -0.865,inactive: -0.422,inactive: -0.392
CC(C)C(=O)NCc1ccc(Cl)c(-c2nc3cc(-c4ccc(C(F)(F)F)cc4)ncc3c(=O)[nH]2)c1,inactive: 0.346,inactive: 1.46,inactive: 2
CC[C@@H](C)CCCCC(=O)N[C@@H](CCNCS(=O)(=O)[O-])C(=O)N[C@H](C(=O)N[C@@H](CCNCS(=O)(=O)[O-])C(=O)N[C@H]1CCNC(=O)[C@H]([C@@H](C)O)NC(=O)[C@H](CCNCS(=O)(=O)[O-])NC(=O)[C@H](CCNCS(=O)(=O)[O-])NC(=O)[C@H](CC(C)C)NC(=O)[C@@H](CC(C)C)NC(=O)[C@H](CCNCS(=O)(=O)[O-])NC1=O)[C@@H](C)O [Colistin A sodium methanesulfonate],inactive: 1.55,inactive: -0.456,active: 7.96
CC1(C)[C@H](NC(=O)/C(=N\OCC(=O)O)c2csc(N)n2)C(=O)N1OS(=O)(=O)O,inactive: -0.0545,inactive: 0.91,inactive: 1.54
C[C@@H](Oc1ccc2[nH]nc(/C=C/c3cnn(CCO)c3)c2c1)c1c(Cl)cncc1Cl,inactive: -2.88,inactive: -2.43,inactive: 0.219
"CC12CCC(=O)C=C1CCC1C2C(O)CC2(C)C1CCC2(O)C(=O)CO (stereo not drawn) [hydrocortisone, Diurnal]",inactive: 0.0578,inactive: 1.07,inactive: -1.82
CCNCCS(=O)(=O)NCC1(c2ccccc2)SC(NC(=O)C(C)(C)C)=NN1C(=O)C(C)(C)C (stereo not drawn) [litronesib],active: 5.38,inactive: -0.298,inactive: 1.42
O=C(c1cc(O)c(O)c(O)c1)c1ccc(O)c(O)c1O,inactive: -0.731,inactive: -0.43,inactive: -1.26
O=C(c1cc(O)c(O)c(O)c1)c1ccc(O)c(O)c1O [Exifone],,inactive: 1.81,
CNc1nc(Nc2ccc(-n3cnc(C)n3)c(OC)c2)nc2c1CC[C@@H]2c1ccc(F)cc1,inactive: -0.888,inactive: 0.36,inactive: 1.14
Cc1csc(NS(=O)(=O)c2ccc(N)cc2)n1,inactive: 1.54,inactive: -0.0761,inactive: 0.746
Cc1nc2cccc(N)c2c(=O)n1C1CCC(=O)NC1=O (stereo not drawn),inactive: -0.693,inactive: -0.414,inactive: 0.4
"CC12CCC3c4ccc(O)cc4C=CC3C1CCC2=O (stereo not drawn) [_q_Delta(8,9)-dehydroestrone sulfate_q_]",inactive: 4.99,inactive: -1.99,inactive: 0.912
